Measurements reported in PubChem BioAssay AID504784 (Drosophila RNAi Screening Center, 2011)

Aim: 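Fly genes whose silencing alters how much lipid cells keep in droplets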 (primary screen)
System: Drosophila Kc167 embryonic cells
Knock-down reagent: long dsRNA against Drosophila genes, about 250 ng dsRNA per well
Duration: 4 days
Challenge: cells fed 400 µM oleic acid bound to BSA
Measured: 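Microscope images give a droplet-to-nucleus area ratio, taken as log and converted to a screen-wide B-score; higher values mean greater lipid storage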
Scale: droplet/nuclear area B-score: higher = more stored lipid (overstorage)
In all, the deposit lists about 17,000 reagents; below is an unselected part of those with a known target gene and a result. 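Each column is one replicate's B-score; the combined score over replicates was not deposited, so single values may mislead.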 Names joined by + are all predicted targets of the reagent.

| gene | dsRNA | droplet/nuclear area B-score, replicate 1 | droplet/nuclear area B-score, replicate 2 | droplet/nuclear area B-score, replicate 3 |
| --- | --- | --- | --- | --- |
| CG16854 (GeneID 34539) | DRSC02536 | 0.151 | 0.155 | – |
| CG11816 (GeneID 32310) | DRSC19428 | -2.11 | -0.85 | 0.652 |
| Mal-A7 (GeneID 35829) | DRSC06077 | 0.136 | 0.638 | – |
| CG32448 (GeneID 318032) | DRSC22657 | 0.183 | 0.0511 | – |
| CG17493 (GeneID 3355126) | DRSC03798 | 3.92 | 5.11 | – |
| CG11808 (GeneID 36687) | DRSC06088 | 7 | -0.43 | – |
| E(spl)mdelta-HLH (GeneID 43150) | DRSC16698 | -0.213 | -0.0822 | – |
| Dap160 (GeneID 35378) | DRSC03313 | 0.285 | 0.133 | – |
| Obp99b (GeneID 43497) | DRSC16264 | -0.478 | 1.28 | – |
| CG12644 (retired record) (GeneID 50414) | DRSC17850 | 1.63 | -0.816 | 1.52 |
| CG3277 (GeneID 33543) | DRSC00588 | -1.91 | -1.91 | – |
| vlc (GeneID 46078) | DRSC04922 | -0.836 | -0.0113 | – |
| Spase25 (GeneID 32095) | DRSC19776 | -2.01 | -1.37 | 0.763 |
| Dscam3 (GeneID 42103) | DRSC14525 | -1.47 | 0.322 | – |
| Dscam3 (GeneID 42103) | DRSC16376 | -1.7 | -1.62 | – |
| CG17124 (GeneID 34485) | DRSC02580 | -0.299 | 1.96 | – |
| gas (GeneID 37572) | DRSC04521 | -1.89 | 3.24 | – |
| CG9130 + CG9133 | DRSC08624 | -0.448 | 0.0455 | -0.118 |
| CG9130 + CG9133 | DRSC08625 | -0.191 | 0.546 | – |
| CG9130 + CG9133 | DRSC22010 | 0.833 | 0.278 | – |
| Plekhm1 (GeneID 37520) | DRSC04527 | 1.46 | 0.375 | – |
| Arp8 (GeneID 32769) | DRSC20059 | -0.457 | 0.675 | – |
| sofe (GeneID 32016) | DRSC19751 | -0.278 | 1.04 | 1.06 |
| 128up (GeneID 36288) | DRSC05027 | -0.357 | -0.64 | – |
| CG13248 (GeneID 40254) | DRSC11696 | 0.207 | 0.453 | – |
| CG31064 (GeneID 43277) | DRSC14756 | 0.295 | -0.9 | – |
| CG31064 (GeneID 43277) | DRSC15941 | -3.57 | 2.64 | – |
| CG31064 (GeneID 43277) | DRSC15942 | -1.97 | -0.824 | – |
| CG31064 (GeneID 43277) | DRSC15943 | -0.542 | 0.318 | – |
| CG13875 (GeneID 38024) | DRSC08345 | 0.187 | 0.424 | – |
| BomS3 (GeneID 50209) | DRSC21458 | 0.482 | 0.473 | – |
| Rtc1 (GeneID 32338) | DRSC20285 | -0.0377 | -0.0963 | 1.74 |
| CkIIalpha (GeneID 48448) | DRSC11946 | -0.746 | 0.19 | – |
| Or13a (GeneID 32562) | DRSC20265 | – | 0.291 | – |
| ox (GeneID 45401) | DRSC07520 | 1.29 | 0.441 | – |
| CG11629 (GeneID 35431) | DRSC03695 | -0.473 | 1.12 | – |
| CG15577 (GeneID 50378) | DRSC18065 | -0.328 | -2.61 | – |
| rod (GeneID 43719) | DRSC17047 | 1.05 | 0.347 | – |
| Mdr49 (GeneID 36428) | DRSC07466 | 0.208 | -0.0127 | – |
| GluRIID (GeneID 44483) | DRSC16723 | 0.0429 | -0.0745 | – |
| CG6569 (GeneID 42573) | DRSC16067 | -0.456 | 0.0806 | – |
| e(y)2b (GeneID 50143) | DRSC12556 | 0.715 | -1.01 | – |
| Fs (GeneID 2768836) | DRSC06258 | -0.0596 | -1.1 | – |
| Fs (GeneID 2768836) | DRSC06259 | 0.802 | -0.674 | – |
| CG13526 (GeneID 37613) | DRSC04168 | 0.602 | -0.161 | – |
| CG6685 (GeneID 39172) | DRSC10695 | 1.64 | 0.227 | – |

Next part, starting with the last 6 of the part before.
| gene | dsRNA | droplet/nuclear area B-score, replicate 1 | droplet/nuclear area B-score, replicate 2 | droplet/nuclear area B-score, replicate 3 |
| --- | --- | --- | --- | --- |
| CG6569 (GeneID 42573) | DRSC16067 | -0.456 | 0.0806 | – |
| e(y)2b (GeneID 50143) | DRSC12556 | 0.715 | -1.01 | – |
| Fs (GeneID 2768836) | DRSC06258 | -0.0596 | -1.1 | – |
| Fs (GeneID 2768836) | DRSC06259 | 0.802 | -0.674 | – |
| CG13526 (GeneID 37613) | DRSC04168 | 0.602 | -0.161 | – |
| CG6685 (GeneID 39172) | DRSC10695 | 1.64 | 0.227 | – |
| CG10051 (GeneID 37222) | DRSC05959 | -0.334 | -0.58 | – |
| ProRS-m (GeneID 38331) | DRSC08261 | 1.55 | 0.769 | – |
| Rok (GeneID 43916) | DRSC20277 | -1.82 | -0.713 | – |
| Rok (GeneID 43916) | DRSC23348 | 0.0256 | -0.262 | – |
| reb (GeneID 36275) | DRSC06308 | -0.0386 | 0.774 | – |
| Obp47a (GeneID 36162) | DRSC06255 | -0.26 | -1.75 | – |
| CG4854 (GeneID 42391) | DRSC15663 | 0.525 | 0.923 | – |
| stw (GeneID 35494) | DRSC04842 | 0.783 | 0.0965 | – |
| stw (GeneID 35494) | DRSC04843 | 0.962 | 1.09 | – |
| stw (GeneID 35494) | DRSC22527 | -0.988 | -1.18 | – |
| U3-55K (GeneID 3346176) | DRSC05982 | 1.5 | -0.471 | – |
| CG5191 (GeneID 42431) | DRSC15733 | -1.07 | -0.618 | – |
| CG5191 (GeneID 42431) | DRSC15734 | -1.02 | -0.957 | – |
| CG5191 (GeneID 42431) | DRSC21559 | 0.4 | 1.08 | – |
| Ttc19 (GeneID 35172) | DRSC02474 | 0.111 | 1.65 | – |
| Nadk1b (GeneID 36507) | DRSC06964 | -0.79 | 0.0081 | – |
| Nadk1b (GeneID 36507) | DRSC06965 | 0.65 | 0.149 | – |
| CG15093 (GeneID 37166) | DRSC06522 | -0.382 | – | – |
| CG4820 (GeneID 41344) | DRSC15654 | -1.32 | -0.778 | – |
| CG6067 (GeneID 31529) | DRSC18399 | -0.115 | 0.323 | – |
| Cdk5 (GeneID 36727) | DRSC07359 | 0.968 | -1.05 | – |
| hydra (GeneID 33058) | DRSC20497 | 0.0562 | -0.567 | – |
| CG17739 (GeneID 36333) | DRSC06689 | 0.837 | -0.0717 | – |
| eIF4E3 (GeneID 38923) | DRSC10952 | 5.87 | 0.969 | – |
| numb (GeneID 34263) | DRSC03584 | -1.09 | -1.5 | – |
| key (GeneID 37967) | DRSC04285 | -3.09 | 0.345 | – |
| boss (GeneID 43146) | DRSC16916 | 0.476 | 1.17 | – |
| bonsai (GeneID 37587) | DRSC04453 | -0.0421 | 0.503 | – |
| CG42674 (GeneID 40205) | DRSC10066 | -0.547 | -0.0122 | – |
| CG42674 (GeneID 40205) | DRSC10067 | -0.714 | 0.158 | – |
| CG42674 (GeneID 40205) | DRSC10811 | -1.5 | 0.778 | – |
| CG5850 (GeneID 34327) | DRSC02905 | 0.0824 | -0.718 | – |
| Lk6 (GeneID 44672) | DRSC12867 | -0.491 | -1.58 | – |
| Lk6 (GeneID 44672) | DRSC16728 | -0.203 | -5.58 | – |
| Gr39b (GeneID 117347) | DRSC01848 | 0.231 | -1.39 | -1.47 |
| MED31 (GeneID 40577) | DRSC12142 | 1.91 | 1.73 | 0.313 |
| CG14301 (GeneID 42235) | DRSC14780 | -2.03 | -0.926 | – |
